Measurements reported in the supplement of paper PMC10849652.
This is one part of the list.

By UniProt entry, the sequences of proteins in these tests, tags left out. Where a name states a change or a piece, a line headed by the entry shows the natural chain unless it says otherwise.
UniProt Q14773: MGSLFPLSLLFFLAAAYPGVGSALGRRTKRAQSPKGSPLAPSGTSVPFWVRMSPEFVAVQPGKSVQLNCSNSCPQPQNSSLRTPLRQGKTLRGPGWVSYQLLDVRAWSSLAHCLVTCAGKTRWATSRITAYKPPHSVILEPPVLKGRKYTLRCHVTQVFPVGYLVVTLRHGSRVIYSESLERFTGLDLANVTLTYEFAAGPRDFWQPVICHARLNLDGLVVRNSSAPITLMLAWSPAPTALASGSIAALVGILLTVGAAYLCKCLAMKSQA
UniProt Q8WYA0: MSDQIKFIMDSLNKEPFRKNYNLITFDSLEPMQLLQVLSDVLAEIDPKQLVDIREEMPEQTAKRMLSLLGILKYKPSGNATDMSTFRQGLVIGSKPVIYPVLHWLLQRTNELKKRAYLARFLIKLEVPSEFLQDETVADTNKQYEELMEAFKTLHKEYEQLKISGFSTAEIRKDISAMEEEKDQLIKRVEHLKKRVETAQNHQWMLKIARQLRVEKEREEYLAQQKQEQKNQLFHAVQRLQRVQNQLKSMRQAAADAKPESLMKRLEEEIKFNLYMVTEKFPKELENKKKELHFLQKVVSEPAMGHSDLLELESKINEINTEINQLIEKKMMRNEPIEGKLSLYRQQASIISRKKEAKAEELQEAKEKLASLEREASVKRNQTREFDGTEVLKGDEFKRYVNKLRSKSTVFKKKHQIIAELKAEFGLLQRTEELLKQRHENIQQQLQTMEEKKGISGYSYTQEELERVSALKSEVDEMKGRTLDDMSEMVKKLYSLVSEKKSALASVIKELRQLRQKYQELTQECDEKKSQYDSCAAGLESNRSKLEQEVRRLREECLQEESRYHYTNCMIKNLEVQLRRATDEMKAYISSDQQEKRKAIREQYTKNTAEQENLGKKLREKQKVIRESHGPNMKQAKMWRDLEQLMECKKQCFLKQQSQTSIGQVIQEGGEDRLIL
UniProt P50213: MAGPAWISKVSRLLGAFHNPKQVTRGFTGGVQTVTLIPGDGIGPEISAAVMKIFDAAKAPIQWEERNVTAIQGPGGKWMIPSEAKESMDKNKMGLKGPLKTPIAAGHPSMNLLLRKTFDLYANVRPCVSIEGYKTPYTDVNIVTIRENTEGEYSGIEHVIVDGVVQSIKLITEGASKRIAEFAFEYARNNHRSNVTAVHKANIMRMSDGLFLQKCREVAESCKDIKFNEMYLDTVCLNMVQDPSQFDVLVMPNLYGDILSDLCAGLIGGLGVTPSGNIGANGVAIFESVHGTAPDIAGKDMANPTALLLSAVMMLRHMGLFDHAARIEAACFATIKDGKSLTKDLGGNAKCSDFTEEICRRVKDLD
UniProt P42858, whole entry, looked up: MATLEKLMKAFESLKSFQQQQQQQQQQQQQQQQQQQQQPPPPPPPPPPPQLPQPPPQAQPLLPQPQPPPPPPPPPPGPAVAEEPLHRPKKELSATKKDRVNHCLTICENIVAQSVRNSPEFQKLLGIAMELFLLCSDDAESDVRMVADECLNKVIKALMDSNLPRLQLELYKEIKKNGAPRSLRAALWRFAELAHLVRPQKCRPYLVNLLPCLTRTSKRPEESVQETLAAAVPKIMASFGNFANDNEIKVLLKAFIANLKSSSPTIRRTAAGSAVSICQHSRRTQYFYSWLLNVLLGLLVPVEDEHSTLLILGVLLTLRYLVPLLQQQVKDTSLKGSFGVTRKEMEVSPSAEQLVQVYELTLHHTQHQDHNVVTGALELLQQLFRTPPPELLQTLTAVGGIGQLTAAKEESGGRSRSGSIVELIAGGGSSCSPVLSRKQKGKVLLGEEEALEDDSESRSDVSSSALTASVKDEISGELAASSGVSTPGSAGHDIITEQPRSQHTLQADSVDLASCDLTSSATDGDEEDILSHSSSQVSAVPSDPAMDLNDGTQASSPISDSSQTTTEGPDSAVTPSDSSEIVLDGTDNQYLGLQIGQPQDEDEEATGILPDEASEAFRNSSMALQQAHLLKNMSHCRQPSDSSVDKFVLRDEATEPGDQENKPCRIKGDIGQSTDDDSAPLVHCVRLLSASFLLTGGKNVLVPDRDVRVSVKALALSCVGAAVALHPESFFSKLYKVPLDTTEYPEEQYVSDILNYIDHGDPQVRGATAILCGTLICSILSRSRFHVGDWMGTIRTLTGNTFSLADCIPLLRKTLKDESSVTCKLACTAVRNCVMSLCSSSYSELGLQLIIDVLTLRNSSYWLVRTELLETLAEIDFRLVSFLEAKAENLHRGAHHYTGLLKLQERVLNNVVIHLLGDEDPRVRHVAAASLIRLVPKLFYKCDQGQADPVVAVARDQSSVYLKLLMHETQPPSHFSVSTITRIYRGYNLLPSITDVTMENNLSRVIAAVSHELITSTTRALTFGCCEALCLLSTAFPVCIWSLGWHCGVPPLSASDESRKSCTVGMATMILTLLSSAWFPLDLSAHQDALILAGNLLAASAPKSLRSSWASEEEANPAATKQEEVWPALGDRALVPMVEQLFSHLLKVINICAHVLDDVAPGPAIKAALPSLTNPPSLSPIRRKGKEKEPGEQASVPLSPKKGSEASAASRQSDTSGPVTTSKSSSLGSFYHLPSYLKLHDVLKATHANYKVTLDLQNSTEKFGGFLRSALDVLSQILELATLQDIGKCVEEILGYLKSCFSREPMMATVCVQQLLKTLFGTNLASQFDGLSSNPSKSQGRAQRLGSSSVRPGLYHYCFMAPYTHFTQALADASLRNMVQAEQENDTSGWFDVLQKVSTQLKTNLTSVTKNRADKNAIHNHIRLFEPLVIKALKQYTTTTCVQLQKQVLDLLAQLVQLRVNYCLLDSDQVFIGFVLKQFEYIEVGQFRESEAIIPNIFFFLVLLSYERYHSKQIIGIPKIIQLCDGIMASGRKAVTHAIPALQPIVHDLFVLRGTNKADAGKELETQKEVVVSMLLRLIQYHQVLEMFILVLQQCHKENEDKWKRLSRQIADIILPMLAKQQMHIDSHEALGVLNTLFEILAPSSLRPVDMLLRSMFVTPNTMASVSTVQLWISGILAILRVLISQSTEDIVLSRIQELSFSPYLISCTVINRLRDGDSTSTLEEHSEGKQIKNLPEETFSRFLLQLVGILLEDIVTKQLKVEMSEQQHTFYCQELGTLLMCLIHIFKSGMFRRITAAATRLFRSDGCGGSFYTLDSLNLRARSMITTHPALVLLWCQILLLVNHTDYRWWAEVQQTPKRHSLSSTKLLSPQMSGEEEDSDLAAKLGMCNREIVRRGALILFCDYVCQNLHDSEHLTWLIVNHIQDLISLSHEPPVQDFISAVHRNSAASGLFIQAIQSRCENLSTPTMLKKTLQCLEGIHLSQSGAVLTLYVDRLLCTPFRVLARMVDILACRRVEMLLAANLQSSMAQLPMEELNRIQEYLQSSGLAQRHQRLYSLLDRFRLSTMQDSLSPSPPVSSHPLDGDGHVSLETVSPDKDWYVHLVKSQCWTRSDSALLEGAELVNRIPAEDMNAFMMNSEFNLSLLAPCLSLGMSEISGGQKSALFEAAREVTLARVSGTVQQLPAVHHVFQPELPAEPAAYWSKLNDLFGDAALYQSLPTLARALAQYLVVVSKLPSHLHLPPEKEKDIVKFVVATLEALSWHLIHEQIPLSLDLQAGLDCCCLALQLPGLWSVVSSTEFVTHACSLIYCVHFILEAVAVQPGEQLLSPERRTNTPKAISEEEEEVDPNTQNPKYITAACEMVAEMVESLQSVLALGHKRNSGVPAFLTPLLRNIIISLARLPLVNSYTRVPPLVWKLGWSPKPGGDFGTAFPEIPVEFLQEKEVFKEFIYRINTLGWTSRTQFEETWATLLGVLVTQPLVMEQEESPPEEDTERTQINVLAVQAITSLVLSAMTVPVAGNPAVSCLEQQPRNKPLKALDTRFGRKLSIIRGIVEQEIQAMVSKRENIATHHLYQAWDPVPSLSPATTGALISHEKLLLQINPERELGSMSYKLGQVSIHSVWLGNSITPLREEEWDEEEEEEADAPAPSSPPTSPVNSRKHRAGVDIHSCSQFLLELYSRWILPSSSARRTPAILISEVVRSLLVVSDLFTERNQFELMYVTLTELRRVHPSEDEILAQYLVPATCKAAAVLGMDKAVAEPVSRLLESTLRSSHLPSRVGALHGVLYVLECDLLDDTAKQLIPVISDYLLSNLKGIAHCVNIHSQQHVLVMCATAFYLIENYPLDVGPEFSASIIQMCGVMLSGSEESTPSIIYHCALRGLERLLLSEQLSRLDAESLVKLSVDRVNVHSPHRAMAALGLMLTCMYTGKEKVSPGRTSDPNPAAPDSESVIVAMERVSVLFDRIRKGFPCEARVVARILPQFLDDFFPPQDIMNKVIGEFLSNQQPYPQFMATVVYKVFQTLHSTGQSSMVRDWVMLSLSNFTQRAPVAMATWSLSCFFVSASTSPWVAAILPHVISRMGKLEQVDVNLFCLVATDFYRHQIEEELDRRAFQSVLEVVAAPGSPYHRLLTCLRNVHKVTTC
UniProt P22304: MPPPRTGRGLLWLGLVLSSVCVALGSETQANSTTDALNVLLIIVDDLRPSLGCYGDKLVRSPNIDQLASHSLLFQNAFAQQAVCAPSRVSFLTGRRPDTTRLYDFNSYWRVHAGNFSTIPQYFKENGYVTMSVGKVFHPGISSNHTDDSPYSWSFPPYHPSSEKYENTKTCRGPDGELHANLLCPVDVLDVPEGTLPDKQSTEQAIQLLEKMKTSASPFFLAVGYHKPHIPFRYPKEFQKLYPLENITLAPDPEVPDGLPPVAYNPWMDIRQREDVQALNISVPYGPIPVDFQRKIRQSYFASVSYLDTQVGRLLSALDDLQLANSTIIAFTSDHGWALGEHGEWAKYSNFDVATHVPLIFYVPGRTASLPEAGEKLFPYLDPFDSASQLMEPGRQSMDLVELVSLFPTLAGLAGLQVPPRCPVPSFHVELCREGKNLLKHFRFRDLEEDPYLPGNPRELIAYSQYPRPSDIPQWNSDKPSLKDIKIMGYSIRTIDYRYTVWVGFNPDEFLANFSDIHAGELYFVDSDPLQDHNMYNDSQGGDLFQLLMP
UniProt Q14642: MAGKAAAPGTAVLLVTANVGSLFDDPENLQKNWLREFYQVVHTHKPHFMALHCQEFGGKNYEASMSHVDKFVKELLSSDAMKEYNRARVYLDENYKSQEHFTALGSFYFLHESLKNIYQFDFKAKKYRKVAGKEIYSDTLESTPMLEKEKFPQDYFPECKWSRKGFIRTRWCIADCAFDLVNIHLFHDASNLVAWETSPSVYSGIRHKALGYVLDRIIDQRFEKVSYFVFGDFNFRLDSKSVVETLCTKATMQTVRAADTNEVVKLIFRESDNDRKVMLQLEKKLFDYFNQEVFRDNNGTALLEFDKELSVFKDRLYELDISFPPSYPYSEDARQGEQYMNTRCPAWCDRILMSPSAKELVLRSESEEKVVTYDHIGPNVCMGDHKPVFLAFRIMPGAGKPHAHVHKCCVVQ
UniProt Q96D96: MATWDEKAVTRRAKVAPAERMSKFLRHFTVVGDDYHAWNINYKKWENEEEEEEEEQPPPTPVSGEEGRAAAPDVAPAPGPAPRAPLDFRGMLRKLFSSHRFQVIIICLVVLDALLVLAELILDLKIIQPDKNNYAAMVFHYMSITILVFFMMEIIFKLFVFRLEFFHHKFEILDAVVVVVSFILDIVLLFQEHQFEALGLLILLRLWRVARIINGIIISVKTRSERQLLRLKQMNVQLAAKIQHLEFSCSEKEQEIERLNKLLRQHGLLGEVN
UniProt P30939: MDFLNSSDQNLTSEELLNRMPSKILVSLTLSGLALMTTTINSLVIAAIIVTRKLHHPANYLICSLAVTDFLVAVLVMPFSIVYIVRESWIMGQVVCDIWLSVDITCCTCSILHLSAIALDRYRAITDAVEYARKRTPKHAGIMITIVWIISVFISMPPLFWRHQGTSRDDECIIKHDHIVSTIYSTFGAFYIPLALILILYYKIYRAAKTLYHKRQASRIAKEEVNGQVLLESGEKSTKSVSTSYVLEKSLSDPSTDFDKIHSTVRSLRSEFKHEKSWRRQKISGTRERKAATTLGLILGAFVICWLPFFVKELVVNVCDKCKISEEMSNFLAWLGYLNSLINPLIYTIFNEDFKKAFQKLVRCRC
UniProt Q9H7X7: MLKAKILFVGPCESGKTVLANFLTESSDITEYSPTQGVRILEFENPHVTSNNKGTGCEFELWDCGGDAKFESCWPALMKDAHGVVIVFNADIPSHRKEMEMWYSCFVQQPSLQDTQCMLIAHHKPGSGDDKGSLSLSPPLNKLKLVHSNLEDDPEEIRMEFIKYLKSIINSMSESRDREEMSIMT

How the values were obtained:
Test in all cases: log2 fold change, soluble protein after heating vs DMSO (PISA); higher = thermal stabilisation; K562 lysate, 10 uM; active = over 0.2 and 3.5 SD of the protein, either way, in both replicates (recomputed)
ibrutinib = compound: C=CC(=O)N1CCC[C@@H](n2nc(-c3ccc(Oc4ccccc4)cc3)c3c(N)ncnc32)C1 [ibrutinib]
Procedure, shortened: (§1)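 Dounce homogenisation of K562 pellets in PBS pH 7.4 with 1 mM MgCl2 produced a crude extract, used at 1 mg/mL protein. Exposure to 10 μM compound lasted 30 min, and aliquots were then heated for 3 min across 48°C-58°C, pooled and brought to 0.5% NP-40 at 4°C. The supernatant after 21,000xg for 90 min was quantified by TMTpro 16plex LC-MS/MS with channel sums equalised. Duplicate values are given as log-two fold change in thermal stability relative to solvent controls.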

ralimetinib = compound: CC(C)(C)Cn1c(N)nc2ccc(-c3[nH]c(C(C)(C)C)nc3-c3ccc(F)cc3)nc21 [ralimetinib]
Procedure, shortened: as §1

[1] = compound: CC(C)(O)CC(=O)NCCn1ccc2ncnc(Nc3ccc(Oc4cccc(C(F)(F)F)c4)c(Cl)c3)c21
Procedure, shortened: as §1

[2] = compound: CC(C)C1=C2N=C(C=C(N2N=C1)NCC3=CC=CC=C3)NCCCCCCN
Procedure, shortened: as §1

[3] = compound: CC1=C(C2=C(C=C1)C(=O)C3=CC=CC=C3N2CCCN)C
Procedure, shortened: as §1

[4] = compound: CC1=C(C=C(C=C1)NC(=O)C2=CC(=CC=C2)N(C)C)NC(=O)C3=CC=C(C=C3)O
Procedure, shortened: as §1

vemurafenib = compound: CCCS(=O)(=O)Nc1ccc(F)c(C(=O)c2c[nH]c3ncc(-c4ccc(Cl)cc4)cc23)c1F [vemurafenib]
Procedure, shortened: as §1

barasertib = compound: CCN(CCCOc1ccc2c(Nc3cc(CC(=O)Nc4cccc(F)c4)[nH]n3)ncnc2c1)CCOP(=O)(O)O [barasertib]
Procedure, shortened: as §1

[5] = compound: CC[C@@H]1C(=O)N(C)c2cnc(Nc3ccc(C(=O)NC4CCN(C)CC4)cc3OC)nc2N1C1CCCC1
Procedure, shortened: as §1

[6] = compound: CCn1c(C(=O)N(C2CC2)C2CC2)cc2c3c(ncn3C)c(Nc3cc(C)n(C)n3)nc21
Procedure, shortened: as §1

[7] = compound: CCn1cc(-c2ccnc3[nH]c(-c4cccc(CN(C)C)c4)cc23)c(-c2ccc(NC(=O)N(C)C)cc2)n1
Procedure, shortened: as §1

[8] = compound: CN1CCC(CNc2ccc3ncc(-c4cccc(OC(F)(F)F)c4)n3n2)CC1
Procedure, shortened: as §1

saracatinib = compound: CN1CCN(CCOc2cc(OC3CCOCC3)c3c(Nc4c(Cl)ccc5c4OCO5)ncnc3c2)CC1 [saracatinib]
Procedure, shortened: as §1

[9] = compound: CC(=O)c1cnc2ccc(-c3cc(Cl)c(O)c(Cl)c3)nc2c1N[C@H]1CC[C@H](CN(C)C)CC1
Procedure, shortened: as §1

[10] = compound: CC1=C(C(CC(=O)N1)C2=CC=C(C=C2)C(F)(F)F)C(=O)NC3=C(C=C4C(=C3)C=NN4)F
Procedure, shortened: as §1

[11] = compound: CC1=C(C=C(C=C1)NC(=O)C2=CC(=CC=C2)C(C)(C)C#N)NC3=CC4=C(C=C3)N=CN(C4=O)C
Procedure, shortened: as §1

[12] = compound: CC1=CC=C(C=C1)SC2=C3C=C(SC3=CN=C2)C(=O)N
Procedure, shortened: as §1

[13] = compound: CCCS(=O)(=O)Nc1ccc(F)c(C(=O)c2c[nH]c3ncc(Cl)cc23)c1F
Procedure, shortened: as §1

volasertib = compound: CC[C@@H]1C(=O)N(C)c2cnc(Nc3ccc(C(=O)N[C@H]4CC[C@H](N5CCN(CC6CC6)CC5)CC4)cc3OC)nc2N1C(C)C [volasertib]
Procedure, shortened: as §1

sotrastaurin = compound: CN1CCN(c2nc(C3=C(c4c[nH]c5ccccc45)C(=O)NC3=O)c3ccccc3n2)CC1 [sotrastaurin]
Procedure, shortened: as §1

Measured: log2 fold change

ICAM4 isoform 3 (UniProt Q14773)
inactive: ibrutinib 0.038 | ralimetinib -0.138 | [1] -0.257 | [2] -0.046 | [3] -0.25 | [4] -0.063 | vemurafenib -0.03 | barasertib 0.043 | [5] -0.092 | [6] -0.343 | [7] -0.084 | [8] 0.022 | saracatinib 0.026

IGHMBP2 (UniProt P38935)
inactive: ibrutinib -0.087 | [9] -0.142 | [2] -0.18 | [10] 0.008 | [3] 0.025 | [11] -0.232 | [12] 0.06 | [13] -0.056 | barasertib -0.043 | [5] -0.211 | volasertib -0.043 | saracatinib 0.134 | sotrastaurin -0.004

IFT81 (UniProt Q8WYA0)
inactive: ibrutinib 0.177 | ralimetinib -0.25 | [1] 0.017 | [11] -0.062 | [4] -0.254 | barasertib -0.055 | [6] 0.18 | [7] -0.031 | [8] -0.122 | sotrastaurin 0.082

IDH3A isoform 2 (UniProt P50213)
inactive: ibrutinib 0.032 | [9] -0.035 | [3] -0.111 | [12] 0.026 | vemurafenib -0.013 | [13] 0.058 | barasertib 0.017 | [5] 0.024 | volasertib 0.032 | [7] -0.272 | [8] 0.13 | saracatinib -0.013

HTT (UniProt P42858)
inactive: ibrutinib 0.11 | ralimetinib 0.065 | [1] 0.008 | [2] -0.032 | [10] 0.047 | [3] -0.032 | [11] 0.035 | [4] 0.04 | vemurafenib -0.083 | barasertib 0.044 | [5] -0.063 | [6] 0.052 | [7] -0.039 | [8] 0.152 | saracatinib -0.033 | sotrastaurin 0.01

ICOSLG isoform 2 (UniProt O75144)
inactive: ibrutinib -0.183 | ralimetinib 0.156 | [1] -0.173 | [4] -0.048 | barasertib 0.25 | [6] -0.245

Two consecutive records from above, quoted:
IFT81 (UniProt Q8WYA0)
inactive: ibrutinib 0.177 | ralimetinib -0.25 | [1] 0.017 | [11] -0.062 | [4] -0.254 | barasertib -0.055 | [6] 0.18 | [7] -0.031 | [8] -0.122 | sotrastaurin 0.082

IDH3A isoform 2 (UniProt P50213)
inactive: ibrutinib 0.032 | [9] -0.035 | [3] -0.111 | [12] 0.026 | vemurafenib -0.013 | [13] 0.058 | barasertib 0.017 | [5] 0.024 | volasertib 0.032 | [7] -0.272 | [8] 0.13 | saracatinib -0.013

(list continues)

IDS (UniProt P22304)
inactive: ibrutinib -0.068 | [9] -0.005 | [2] -0.189 | [12] 0.098 | [13] -0.204 | barasertib 0.142 | [5] 0.168 | volasertib -0.067

INPP5A (UniProt Q14642)
inactive: ibrutinib 0.059 | ralimetinib 0.126 | [1] -0.122 | [2] 0.028 | [3] 0 | [4] 0.016 | vemurafenib -0.044 | barasertib -0.035 | [5] -0.068 | [6] 0.154 | [7] -0.054 | [8] 0.152 | saracatinib 0.115

HVCN1 (UniProt Q96D96)
inactive: ibrutinib -0.057 | [9] 0.121 | [2] -0.116 | [12] -0.131 | [13] 0.094 | barasertib 0.072 | [5] 0.014 | volasertib -0.072 | [7] -0.135 | [8] 0.229

HTR1F (UniProt P30939)
inactive: ibrutinib 0.046 | vemurafenib -0.016 | barasertib 0.024

IGLL5 (UniProt B9A064)
inactive: [9] -0.08 | ralimetinib -0.14 | [1] 0.333 | [2] 1.58 | [11] -0.02 | [4] 0.06 | [12] -0.067 | vemurafenib 0.166 | [13] 0.044 | [5] -0.286 | volasertib -0.098 | [6] -0.017 | [7] 0.477 | [8] -0.29 | sotrastaurin -0.124

ICAM4 (UniProt Q14773)
inactive: ibrutinib 0.115 | ralimetinib 0.14 | [1] -0.024 | [3] -0.038 | [4] -0.019 | barasertib 0.189 | [5] 0.085 | [6] 0.078 | [7] -0.034 | [8] -0.076 | saracatinib 0

HYDIN (UniProt Q4G0P3)
inactive: [9] -0.076 | ralimetinib 0.148 | [1] -0.071 | [3] -0.05 | [4] -0.107 | [12] 0.017 | vemurafenib -0.075 | [13] 0.081 | [5] 0.089 | volasertib 0.021 | [6] 0.76 | saracatinib 0.028

IGHG1 (UniProt P01857)
inactive: ibrutinib -0.186 | ralimetinib -0.094 | [1] 0.595 | [2] 1.02 | [10] 1.89 | [3] 0.041 | [11] -0.035 | [4] 0.136 | vemurafenib -0.274 | barasertib 0.026 | [6] -0.018 | [7] 0.245 | [8] -0.168 | saracatinib -0.076 | sotrastaurin -0.121

HYOU1, A0A494C039
inactive: ibrutinib -0.125 | [9] 0.045 | [2] 0.084 | [3] -0.13 | [12] 0.123 | [13] 0.091 | barasertib -0.11 | [5] 0.065 | volasertib 0.058 | [7] -0.269 | [8] 0.014 | saracatinib -0.085

IFT22 (UniProt Q9H7X7)
inactive: ibrutinib -0.163 | ralimetinib 0.112 | [1] -0.191 | [2] 0.067 | [3] 0.099 | [4] -0.299 | barasertib 0.145 | [5] 0.123 | [6] -0.001 | saracatinib -0.047
